From patent publication US20160130315A1

Chains of the proteins cited; added tags and fusions are not shown. Lines headed by an entry give the natural chain unless they say otherwise; changes in a name come on top.
UniProt O60462: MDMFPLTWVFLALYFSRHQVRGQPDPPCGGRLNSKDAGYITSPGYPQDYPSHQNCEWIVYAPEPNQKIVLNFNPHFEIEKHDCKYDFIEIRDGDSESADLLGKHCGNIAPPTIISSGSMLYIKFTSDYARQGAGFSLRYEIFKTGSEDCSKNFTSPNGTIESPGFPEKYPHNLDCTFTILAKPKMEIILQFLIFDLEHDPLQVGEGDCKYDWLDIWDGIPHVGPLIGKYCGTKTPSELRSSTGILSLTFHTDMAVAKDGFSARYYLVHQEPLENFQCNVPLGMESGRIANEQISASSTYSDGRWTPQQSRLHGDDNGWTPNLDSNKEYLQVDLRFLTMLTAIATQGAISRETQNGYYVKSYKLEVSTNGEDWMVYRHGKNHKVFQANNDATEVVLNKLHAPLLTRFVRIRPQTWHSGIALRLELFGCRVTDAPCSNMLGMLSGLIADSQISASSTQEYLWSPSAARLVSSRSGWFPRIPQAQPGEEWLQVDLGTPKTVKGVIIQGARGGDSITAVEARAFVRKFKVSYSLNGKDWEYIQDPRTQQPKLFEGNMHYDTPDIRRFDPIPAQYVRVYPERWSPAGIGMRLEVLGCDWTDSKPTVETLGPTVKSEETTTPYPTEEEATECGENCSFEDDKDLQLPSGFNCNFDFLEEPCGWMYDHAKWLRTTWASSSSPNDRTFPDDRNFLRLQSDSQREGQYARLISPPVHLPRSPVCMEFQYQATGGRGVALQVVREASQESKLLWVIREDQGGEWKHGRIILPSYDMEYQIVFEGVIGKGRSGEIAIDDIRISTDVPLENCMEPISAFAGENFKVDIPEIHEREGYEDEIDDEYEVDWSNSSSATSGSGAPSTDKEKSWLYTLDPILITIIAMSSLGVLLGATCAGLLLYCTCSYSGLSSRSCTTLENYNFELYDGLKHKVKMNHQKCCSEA
UniProt O14786: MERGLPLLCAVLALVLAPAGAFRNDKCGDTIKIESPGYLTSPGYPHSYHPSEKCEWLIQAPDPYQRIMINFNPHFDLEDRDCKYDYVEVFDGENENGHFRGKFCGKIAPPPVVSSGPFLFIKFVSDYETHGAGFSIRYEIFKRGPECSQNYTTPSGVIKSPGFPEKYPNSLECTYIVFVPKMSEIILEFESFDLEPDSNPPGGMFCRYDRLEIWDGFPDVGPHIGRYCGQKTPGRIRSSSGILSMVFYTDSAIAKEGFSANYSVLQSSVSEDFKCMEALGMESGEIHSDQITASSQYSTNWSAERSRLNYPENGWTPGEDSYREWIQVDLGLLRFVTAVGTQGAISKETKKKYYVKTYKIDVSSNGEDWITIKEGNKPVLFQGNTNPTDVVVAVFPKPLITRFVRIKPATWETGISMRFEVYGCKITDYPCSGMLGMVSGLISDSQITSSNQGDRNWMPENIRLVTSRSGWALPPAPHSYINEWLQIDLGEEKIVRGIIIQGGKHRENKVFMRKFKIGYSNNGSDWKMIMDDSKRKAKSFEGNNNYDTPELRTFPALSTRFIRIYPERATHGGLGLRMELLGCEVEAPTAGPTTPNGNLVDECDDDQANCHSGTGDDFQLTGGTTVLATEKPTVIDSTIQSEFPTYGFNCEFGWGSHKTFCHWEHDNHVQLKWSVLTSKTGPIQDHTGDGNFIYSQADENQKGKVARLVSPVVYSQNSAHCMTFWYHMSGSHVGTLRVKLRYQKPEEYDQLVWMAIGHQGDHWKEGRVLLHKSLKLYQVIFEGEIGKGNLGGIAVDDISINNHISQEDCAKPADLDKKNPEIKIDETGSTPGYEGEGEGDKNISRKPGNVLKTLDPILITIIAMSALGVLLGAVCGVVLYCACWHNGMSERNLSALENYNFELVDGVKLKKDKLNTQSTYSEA
UniProt Q13275: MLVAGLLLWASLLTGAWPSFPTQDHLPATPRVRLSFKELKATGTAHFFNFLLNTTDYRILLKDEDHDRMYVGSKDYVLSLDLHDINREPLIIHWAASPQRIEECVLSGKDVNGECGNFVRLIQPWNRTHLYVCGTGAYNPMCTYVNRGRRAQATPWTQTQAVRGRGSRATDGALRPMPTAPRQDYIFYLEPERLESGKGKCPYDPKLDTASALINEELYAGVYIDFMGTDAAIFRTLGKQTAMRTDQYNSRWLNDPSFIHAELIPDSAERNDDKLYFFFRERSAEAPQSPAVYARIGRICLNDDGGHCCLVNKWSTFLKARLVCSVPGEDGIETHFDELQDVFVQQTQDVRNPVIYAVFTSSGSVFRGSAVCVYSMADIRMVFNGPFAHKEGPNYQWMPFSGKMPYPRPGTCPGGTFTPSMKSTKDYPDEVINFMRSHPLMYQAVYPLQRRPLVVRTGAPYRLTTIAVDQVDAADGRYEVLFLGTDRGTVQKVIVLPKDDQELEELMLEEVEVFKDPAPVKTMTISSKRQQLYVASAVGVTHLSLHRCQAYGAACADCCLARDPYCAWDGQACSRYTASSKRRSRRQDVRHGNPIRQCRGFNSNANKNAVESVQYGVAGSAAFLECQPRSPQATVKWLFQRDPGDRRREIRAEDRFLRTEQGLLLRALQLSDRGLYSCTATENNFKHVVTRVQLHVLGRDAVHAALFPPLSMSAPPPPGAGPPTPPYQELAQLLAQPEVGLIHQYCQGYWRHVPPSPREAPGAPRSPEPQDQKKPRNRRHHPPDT

Tests used:
[1] = target: b1b2 domains (275-595) of neuropilin-2 (UniProt O60462); assay: ELISA: target coated on the plate, biotinylated binder at 100 nM, anti-biotin-AP and pNPP, absorbance at 405 nm [B]
[2] = target: b1b2 domains (273-586) of neuropilin-1 (UniProt O14786); assay: as above
[3] = target: b1b2 domains (275-595) of neuropilin-2 (UniProt O60462); assay: ELISA, plate-bound b1b2 domain
[4] = target: b1b2 domains (273-586) of neuropilin-1 (UniProt O14786); assay: ELISA, plate-bound b1b2 domain

Measured: binding

Sema3F (19-779) (from UniProt Q13275) (ligand)
binds: all assays above

Results are given in words; binding and its absence hold for the method and conditions named. Binding calls can cover weak binding; strength is not graded here.
